We go through one compound from patent US6846659B2, “Isolation and bacterial expression of a sesquiterpene synthase cDNA clone from peppermint (Mentha x piperita, L.) that produces the aphid alarm pheromone (E)-β-farnesene” (Washington State University Research Foundation, priority 1997, dated 2005).

Protein sequences, listed by entry. Tags and fused reporters are not part of them. Lines headed by an entry give the natural chain unless they say otherwise; changes in a name come on top.
UniProt O48935, whole entry: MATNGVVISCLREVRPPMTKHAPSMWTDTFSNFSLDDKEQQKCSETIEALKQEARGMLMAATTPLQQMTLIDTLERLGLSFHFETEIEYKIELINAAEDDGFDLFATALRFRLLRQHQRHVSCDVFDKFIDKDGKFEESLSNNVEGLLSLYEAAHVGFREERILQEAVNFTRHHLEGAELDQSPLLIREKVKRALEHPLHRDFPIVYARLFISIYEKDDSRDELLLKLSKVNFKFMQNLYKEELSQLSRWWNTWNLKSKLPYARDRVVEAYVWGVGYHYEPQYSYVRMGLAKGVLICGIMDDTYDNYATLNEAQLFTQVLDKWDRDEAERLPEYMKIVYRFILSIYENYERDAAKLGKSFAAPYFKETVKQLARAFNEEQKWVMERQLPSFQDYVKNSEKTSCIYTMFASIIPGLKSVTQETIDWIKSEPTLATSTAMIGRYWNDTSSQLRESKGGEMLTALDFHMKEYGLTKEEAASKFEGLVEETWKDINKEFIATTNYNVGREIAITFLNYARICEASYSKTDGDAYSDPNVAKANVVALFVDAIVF

The source holds more than one record for some entries. This list holds those alone. There may be further records. Results that share an entry do not match, cause unknown; they may come from other doses, times, organisms or constructs than stated.

This test addresses recombinant (E)-β-farnesene synthase (SEQ ID NO:2) (Mentha piperita, UniProt O48935). The experiment in a line: Kinetic characterization of recombinant, partially purified (E)-β-farnesene synthase (sesquiterpene/monoterpene/diterpene synthase assay). It counts as biochemical, peppermint (Mentha piperita). The note with it: conversion to monoterpene olefins versus FDP to sesquiterpene olefins, at saturation; tested as the radiolabelled form.

As for `CC(C)=CCC/C(C)=C/COP(=O)(O)OP(=O)(O)O` [GDP, geranyl diphosphate], the “relative velocity at saturating levels, of the velocity with FDP” value is “less than 3% and 3%”.
